Data reported in the supplement of paper PMC10849652.
This is one part of the list.

Sequences of proteins named here, by UniProt entry; tags and fusion partners are left off. A change or cut given only in a name is not applied to a line headed by its entry.
UniProt Q9H974: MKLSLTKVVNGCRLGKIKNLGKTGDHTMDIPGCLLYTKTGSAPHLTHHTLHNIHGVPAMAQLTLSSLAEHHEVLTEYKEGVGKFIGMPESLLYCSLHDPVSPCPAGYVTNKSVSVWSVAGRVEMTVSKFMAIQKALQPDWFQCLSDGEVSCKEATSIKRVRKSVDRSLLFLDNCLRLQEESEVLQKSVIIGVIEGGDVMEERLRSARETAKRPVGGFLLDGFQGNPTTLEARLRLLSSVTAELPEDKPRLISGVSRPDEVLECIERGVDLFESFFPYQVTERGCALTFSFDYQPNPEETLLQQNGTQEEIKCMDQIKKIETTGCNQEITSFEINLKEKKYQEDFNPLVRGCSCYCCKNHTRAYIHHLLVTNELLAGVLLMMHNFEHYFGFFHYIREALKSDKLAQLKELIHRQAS
UniProt Q9NRW1: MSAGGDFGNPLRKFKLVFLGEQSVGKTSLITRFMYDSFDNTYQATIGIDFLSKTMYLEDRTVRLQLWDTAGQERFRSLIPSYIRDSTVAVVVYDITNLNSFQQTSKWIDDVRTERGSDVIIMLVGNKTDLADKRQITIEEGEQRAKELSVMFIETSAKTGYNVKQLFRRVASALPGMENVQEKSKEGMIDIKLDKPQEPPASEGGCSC
UniProt P47224: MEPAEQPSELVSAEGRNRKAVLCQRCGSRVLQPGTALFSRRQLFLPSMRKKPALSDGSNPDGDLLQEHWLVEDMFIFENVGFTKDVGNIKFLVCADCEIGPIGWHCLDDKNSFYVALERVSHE
UniProt Q96S21: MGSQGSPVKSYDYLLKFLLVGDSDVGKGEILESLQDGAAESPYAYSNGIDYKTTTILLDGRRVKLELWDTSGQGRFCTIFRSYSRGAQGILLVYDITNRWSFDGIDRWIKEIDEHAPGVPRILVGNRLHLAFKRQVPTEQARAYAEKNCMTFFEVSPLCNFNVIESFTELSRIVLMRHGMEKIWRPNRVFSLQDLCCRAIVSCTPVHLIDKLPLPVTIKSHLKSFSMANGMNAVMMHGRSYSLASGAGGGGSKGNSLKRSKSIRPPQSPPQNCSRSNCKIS
UniProt Q9H2T7: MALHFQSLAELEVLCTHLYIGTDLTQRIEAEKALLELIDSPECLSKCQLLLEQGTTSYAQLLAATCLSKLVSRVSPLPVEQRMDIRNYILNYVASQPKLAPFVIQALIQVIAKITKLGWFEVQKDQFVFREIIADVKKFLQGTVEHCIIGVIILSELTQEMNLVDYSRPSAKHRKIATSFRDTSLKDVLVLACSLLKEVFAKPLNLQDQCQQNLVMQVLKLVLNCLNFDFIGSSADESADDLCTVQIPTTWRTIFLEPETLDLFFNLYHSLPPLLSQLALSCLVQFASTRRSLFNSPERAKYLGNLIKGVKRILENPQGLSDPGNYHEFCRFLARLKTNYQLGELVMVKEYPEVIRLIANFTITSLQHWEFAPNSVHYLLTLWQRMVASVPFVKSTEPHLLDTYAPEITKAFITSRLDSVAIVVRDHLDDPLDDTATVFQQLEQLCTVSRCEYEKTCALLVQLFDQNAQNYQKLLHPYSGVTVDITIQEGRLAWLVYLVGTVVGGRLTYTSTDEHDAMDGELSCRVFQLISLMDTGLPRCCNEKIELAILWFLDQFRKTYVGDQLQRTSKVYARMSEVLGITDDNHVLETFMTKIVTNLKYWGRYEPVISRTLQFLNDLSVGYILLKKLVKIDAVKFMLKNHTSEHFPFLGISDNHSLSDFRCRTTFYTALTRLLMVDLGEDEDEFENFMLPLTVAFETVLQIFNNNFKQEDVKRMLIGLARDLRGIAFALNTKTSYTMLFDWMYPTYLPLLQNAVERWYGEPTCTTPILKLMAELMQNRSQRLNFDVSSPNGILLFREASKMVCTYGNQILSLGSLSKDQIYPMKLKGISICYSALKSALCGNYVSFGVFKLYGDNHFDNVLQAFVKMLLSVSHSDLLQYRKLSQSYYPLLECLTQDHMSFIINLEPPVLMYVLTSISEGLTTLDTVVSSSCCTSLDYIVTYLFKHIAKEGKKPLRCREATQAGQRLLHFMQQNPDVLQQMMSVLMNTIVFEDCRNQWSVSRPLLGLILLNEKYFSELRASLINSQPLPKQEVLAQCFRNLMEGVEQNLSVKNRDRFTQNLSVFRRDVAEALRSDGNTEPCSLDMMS
UniProt Q9NR77: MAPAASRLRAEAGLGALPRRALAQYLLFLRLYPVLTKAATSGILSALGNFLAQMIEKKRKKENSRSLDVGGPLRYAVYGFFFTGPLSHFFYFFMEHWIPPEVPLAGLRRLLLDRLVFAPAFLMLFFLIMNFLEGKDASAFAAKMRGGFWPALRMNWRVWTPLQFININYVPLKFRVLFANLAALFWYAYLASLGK
UniProt Q92696: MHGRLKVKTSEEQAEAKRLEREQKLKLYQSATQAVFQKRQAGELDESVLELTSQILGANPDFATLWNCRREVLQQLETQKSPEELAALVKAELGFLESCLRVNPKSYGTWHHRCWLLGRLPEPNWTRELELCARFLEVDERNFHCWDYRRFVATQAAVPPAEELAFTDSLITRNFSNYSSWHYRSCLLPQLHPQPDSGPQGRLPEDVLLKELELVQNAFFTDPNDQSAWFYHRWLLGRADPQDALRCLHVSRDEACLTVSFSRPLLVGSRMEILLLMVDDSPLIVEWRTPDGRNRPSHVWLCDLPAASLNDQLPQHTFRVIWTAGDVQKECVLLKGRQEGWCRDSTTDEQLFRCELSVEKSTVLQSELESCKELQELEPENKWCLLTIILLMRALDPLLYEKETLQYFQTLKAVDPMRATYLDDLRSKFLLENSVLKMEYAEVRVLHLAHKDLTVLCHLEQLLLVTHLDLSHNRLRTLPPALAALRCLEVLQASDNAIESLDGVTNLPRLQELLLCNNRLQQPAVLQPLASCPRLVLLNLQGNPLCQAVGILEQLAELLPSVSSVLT
UniProt Q96QF0: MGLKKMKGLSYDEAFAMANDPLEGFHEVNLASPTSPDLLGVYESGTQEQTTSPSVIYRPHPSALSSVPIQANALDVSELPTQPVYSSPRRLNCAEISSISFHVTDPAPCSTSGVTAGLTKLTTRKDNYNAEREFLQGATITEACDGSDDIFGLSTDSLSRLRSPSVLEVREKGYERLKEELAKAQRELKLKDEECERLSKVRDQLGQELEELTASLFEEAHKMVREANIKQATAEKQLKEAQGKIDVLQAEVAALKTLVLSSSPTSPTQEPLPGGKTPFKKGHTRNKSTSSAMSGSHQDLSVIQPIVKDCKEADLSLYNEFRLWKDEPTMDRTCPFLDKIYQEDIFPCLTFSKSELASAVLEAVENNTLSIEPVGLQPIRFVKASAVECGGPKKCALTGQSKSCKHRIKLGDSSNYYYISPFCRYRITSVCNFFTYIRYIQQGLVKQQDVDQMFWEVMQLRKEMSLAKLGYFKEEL
UniProt Q9BTL3: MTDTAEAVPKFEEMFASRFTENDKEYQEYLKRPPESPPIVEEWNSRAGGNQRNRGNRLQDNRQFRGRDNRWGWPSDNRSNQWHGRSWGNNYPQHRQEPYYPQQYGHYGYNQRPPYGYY
UniProt Q5HYI8: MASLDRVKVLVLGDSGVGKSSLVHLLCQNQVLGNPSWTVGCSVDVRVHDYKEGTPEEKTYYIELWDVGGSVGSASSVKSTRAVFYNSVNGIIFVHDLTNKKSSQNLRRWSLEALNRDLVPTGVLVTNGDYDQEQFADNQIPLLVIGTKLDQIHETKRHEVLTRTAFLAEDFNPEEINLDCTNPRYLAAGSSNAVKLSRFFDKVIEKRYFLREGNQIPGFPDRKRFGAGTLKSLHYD
UniProt Q6GYQ0: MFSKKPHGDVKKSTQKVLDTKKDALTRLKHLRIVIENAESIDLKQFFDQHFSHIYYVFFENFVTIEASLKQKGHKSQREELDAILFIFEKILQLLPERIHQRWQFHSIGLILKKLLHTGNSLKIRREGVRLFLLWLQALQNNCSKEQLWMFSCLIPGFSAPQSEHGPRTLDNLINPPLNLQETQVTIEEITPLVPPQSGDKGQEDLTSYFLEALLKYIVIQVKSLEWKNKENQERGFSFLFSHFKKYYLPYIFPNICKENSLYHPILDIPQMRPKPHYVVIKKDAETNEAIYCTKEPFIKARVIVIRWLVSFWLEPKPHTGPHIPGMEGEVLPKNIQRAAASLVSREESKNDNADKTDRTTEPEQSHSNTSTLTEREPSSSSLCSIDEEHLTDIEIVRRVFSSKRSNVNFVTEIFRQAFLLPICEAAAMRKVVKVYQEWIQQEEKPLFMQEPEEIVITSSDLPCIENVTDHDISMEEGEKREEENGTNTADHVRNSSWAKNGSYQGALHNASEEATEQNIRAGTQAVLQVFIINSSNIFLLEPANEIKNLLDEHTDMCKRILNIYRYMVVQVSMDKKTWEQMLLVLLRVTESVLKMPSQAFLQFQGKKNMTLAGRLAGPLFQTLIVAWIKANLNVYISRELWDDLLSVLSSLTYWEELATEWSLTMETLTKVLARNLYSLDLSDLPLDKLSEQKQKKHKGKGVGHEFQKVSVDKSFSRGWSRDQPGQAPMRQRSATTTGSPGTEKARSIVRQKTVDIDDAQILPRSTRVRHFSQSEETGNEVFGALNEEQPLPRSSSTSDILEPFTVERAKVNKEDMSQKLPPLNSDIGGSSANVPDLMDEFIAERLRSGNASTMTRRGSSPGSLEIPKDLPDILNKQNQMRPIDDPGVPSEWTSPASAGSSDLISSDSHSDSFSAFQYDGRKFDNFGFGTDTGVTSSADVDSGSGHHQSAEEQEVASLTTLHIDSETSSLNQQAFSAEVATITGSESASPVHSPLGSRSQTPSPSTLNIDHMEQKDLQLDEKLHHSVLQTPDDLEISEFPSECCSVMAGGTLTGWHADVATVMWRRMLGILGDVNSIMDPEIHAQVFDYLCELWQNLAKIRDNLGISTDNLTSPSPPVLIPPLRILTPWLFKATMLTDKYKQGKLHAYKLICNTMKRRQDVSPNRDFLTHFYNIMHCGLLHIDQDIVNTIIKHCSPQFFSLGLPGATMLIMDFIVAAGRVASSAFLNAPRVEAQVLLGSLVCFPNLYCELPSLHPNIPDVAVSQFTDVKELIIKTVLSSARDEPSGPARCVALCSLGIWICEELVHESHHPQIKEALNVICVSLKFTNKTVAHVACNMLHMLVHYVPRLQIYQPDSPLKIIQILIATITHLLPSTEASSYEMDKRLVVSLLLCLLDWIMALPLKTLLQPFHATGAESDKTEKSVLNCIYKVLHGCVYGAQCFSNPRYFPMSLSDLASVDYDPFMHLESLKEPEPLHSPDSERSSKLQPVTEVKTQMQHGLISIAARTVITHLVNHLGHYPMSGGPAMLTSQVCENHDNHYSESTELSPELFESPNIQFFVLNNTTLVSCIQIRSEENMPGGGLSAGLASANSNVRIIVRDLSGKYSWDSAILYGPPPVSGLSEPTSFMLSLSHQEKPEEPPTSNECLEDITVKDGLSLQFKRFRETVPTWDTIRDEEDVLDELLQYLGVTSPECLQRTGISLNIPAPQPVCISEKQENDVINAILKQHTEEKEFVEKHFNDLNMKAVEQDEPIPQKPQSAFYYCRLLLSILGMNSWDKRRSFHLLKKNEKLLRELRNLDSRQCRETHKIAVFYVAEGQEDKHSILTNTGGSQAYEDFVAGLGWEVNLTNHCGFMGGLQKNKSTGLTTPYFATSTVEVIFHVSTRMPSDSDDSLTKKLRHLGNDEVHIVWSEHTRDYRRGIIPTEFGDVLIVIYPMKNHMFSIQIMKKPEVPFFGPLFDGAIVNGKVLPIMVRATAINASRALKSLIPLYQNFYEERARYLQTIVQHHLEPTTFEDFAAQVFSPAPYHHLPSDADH
UniProt Q9Y3L5: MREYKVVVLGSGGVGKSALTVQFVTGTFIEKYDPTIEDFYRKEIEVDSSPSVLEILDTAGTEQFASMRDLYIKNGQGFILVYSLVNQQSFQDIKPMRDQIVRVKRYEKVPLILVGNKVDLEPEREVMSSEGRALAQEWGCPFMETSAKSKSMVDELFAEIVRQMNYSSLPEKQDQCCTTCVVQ
UniProt P62834: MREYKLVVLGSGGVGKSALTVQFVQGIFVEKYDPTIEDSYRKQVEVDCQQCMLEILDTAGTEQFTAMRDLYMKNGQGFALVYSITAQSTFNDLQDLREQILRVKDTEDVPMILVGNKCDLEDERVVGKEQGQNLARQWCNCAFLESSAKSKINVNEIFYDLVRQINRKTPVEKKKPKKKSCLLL
UniProt Q99638: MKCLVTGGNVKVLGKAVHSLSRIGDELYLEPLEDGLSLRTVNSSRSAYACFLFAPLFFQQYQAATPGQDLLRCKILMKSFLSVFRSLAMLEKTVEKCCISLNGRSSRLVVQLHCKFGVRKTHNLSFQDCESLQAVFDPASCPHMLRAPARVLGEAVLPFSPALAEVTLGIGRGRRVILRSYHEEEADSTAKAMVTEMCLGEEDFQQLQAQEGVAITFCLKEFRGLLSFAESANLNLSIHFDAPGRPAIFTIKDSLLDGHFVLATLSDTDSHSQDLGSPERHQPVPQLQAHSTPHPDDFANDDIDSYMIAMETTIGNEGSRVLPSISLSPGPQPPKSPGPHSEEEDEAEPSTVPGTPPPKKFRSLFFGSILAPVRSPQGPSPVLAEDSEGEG

Experiments:
Test in all cases: log2 fold change, soluble protein after heating vs DMSO (PISA); higher = thermal stabilisation; K562 lysate, 10 uM; active = over 0.2 and 3.5 SD of the protein, either way, in both replicates (recomputed)
erlotinib = compound: C#Cc1cccc(Nc2ncnc3cc(OCCOC)c(OCCOC)cc23)c1 [erlotinib]
How it was run: (§1)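 Values give the log-two fold change in thermal stability against solvent controls, from duplicates. Crude K562 extract at 1 mg/mL protein, made by dounce homogenisation in PBS pH 7.4 with 1 mM MgCl2, was treated with 10 μM compound for 30 min. After 3 min heating across 48°C-58°C, aliquots were pooled, adjusted to 0.5% NP-40 at 4°C and centrifuged at 21,000xg for 90 min. The supernatant was measured by TMTpro 16plex LC-MS/MS with channel sums equalised.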

[1] = compound: C/C(=N\NC(=O)C1=CC(=CC=C1)S(=O)(=O)N2CCOCC2)/C3=C(C=CC(=C3)Cl)O
How it was run: as §1

[2] = compound: C1=CC(=CC=C1C2=NC3=C(N2)C=C(C=C3)C(=O)N)OC4=CC=C(C=C4)Cl
How it was run: as §1

[3] = compound: C1=CC2=C(C=CC(=C2)/C=C\3/C(=O)NC(=NCC4=CC=CS4)S3)N=C1
How it was run: as §1

[4] = compound: C1=CC2=NC=CN=C2C=C1/C=C/3\C(=O)NC(=O)S3
How it was run: as §1

[5] = compound: C1=CC=C(C=C1)C2=NC(=C(N2)C3=CC=NC=C3)C4=CC(=C(C=C4)Cl)O
How it was run: as §1

[6] = compound: C1=CC=C2C(=C1)C3=NNC4=CC=CC(=C43)C2=O
How it was run: as §1

[7] = compound: C1CCN(C1)C(=O)NC2=CC=CC(=C2)NC3=NC=C(C(=N3)NCCC4=CN=CN4)Br
How it was run: as §1

[8] = compound: C1CN(CCC1(CC2=CC=C(C=C2)Cl)N)C3=NC=NC4=C3C=CN4
How it was run: as §1

IRAK-1-4 Inhibitor I = compound: C1COCCN1CCN2C3=CC=CC=C3N=C2NC(=O)C4=CC(=CC=C4)[N+](=O)[O-] [IRAK-1-4 Inhibitor I]
How it was run: as §1

Target | log2 fold change (erlotinib) | log2 fold change [1] | log2 fold change [2] | log2 fold change [3] | log2 fold change [4] | log2 fold change [5] | log2 fold change [6] | log2 fold change [7] | log2 fold change [8] | log2 fold change (IRAK-1-4 Inhibitor I)
PYCR3 (UniProt Q53H96) | inactive: 0 | inactive: -0.003 | inactive: -0.022 | inactive: -0.069 | inactive: 0.058 | inactive: -0.003 | inactive: 0 | inactive: 0.037 | inactive: -0.009 | inactive: -0.016
QTRT2 isoform 4 (UniProt Q9H974) | inactive: -0.024 | inactive: 0.082 | inactive: -0.032 | inactive: -0.019 | inactive: -0.048 | inactive: -0.009 | inactive: -0.007 | inactive: 0.007 | inactive: 0.022 | inactive: 0.006
RABL6 (UniProt Q3YEC7) | inactive: -0.034 | inactive: 0.03 | inactive: 0.011 | inactive: -0.017 | inactive: -0.017 | inactive: 0.014 | inactive: 0.011 | inactive: -0.011 | inactive: 0.019 | inactive: -0.014
RANBP3 (UniProt Q9H6Z4) | inactive: -0.013 | inactive: -0.031 | inactive: 0.02 | inactive: -0.028 | inactive: -0.012 | inactive: 0.01 | inactive: -0.008 | inactive: -0.004 | inactive: 0.017 | inactive: 0.023
RAB6B (UniProt Q9NRW1) | inactive: 0 | inactive: -0.088 | inactive: 0.017 | inactive: 0.014 | inactive: -0.038 | inactive: 0.001 | inactive: 0.024 | inactive: 0.025 | inactive: 0.032 | inactive: 0.047
RABIF (UniProt P47224) | inactive: 0.007 | inactive: -0.015 | inactive: 0.058 | inactive: -0.001 | inactive: -0.032 | inactive: -0.018 | inactive: -0.045 | inactive: 0.018 | inactive: -0.034 | inactive: 0.001
RABEP2 (UniProt Q9H5N1) | inactive: 0.05 | inactive: -0.011 | inactive: 0.029 | inactive: -0.045 | inactive: -0.04 | inactive: 0.003 | inactive: -0.074 | inactive: 0.034 | inactive: -0.006 | inactive: -0.001
RAB40C (UniProt Q96S21) | inactive: -0.015 | inactive: -0.04 | inactive: 0.035 | inactive: -0.011 | inactive: -0.042 | inactive: -0.025 | inactive: -0.037 | inactive: -0.018 | inactive: -0.027 | inactive: 0.032
RANBP17 (UniProt Q9H2T7) | inactive: 0.053 | inactive: -0.128 | inactive: -0.048 | inactive: -0.076 | inactive: 0.066 | inactive: 0.035 | inactive: -0.024 | inactive: 0.083 | inactive: 0.035 | inactive: 0.077
RAB4B isoform 2 (UniProt P61018) | inactive: -0.026 | inactive: -0.003 | inactive: -0.007 | inactive: -0.036 | inactive: -0.044 | inactive: 0.022 | inactive: -0.013 | inactive: -0.013 | inactive: -0.021 | inactive: -0.012
RAB31 (UniProt Q13636) | inactive: 0.001 | inactive: 0.036 | inactive: 0.027 | inactive: 0.039 | inactive: 0.027 | inactive: 0.013 | inactive: -0.059 | inactive: -0.047 | inactive: -0.02 | inactive: -0.015
PXMP2 (UniProt Q9NR77) | inactive: 0 | inactive: 0.028 | inactive: -0.012 | inactive: -0.023 | inactive: -0.004 | inactive: -0.094 | inactive: 0.035 | inactive: -0.023 | inactive: 0.002 | inactive: 0.021
RABGGTA (UniProt Q92696) | inactive: 0.01 | inactive: 0.083 | inactive: 0.01 | inactive: -0.016 | inactive: 0.005 | inactive: -0.012 | inactive: -0.02 | inactive: -0.009 | inactive: 0.035 | inactive: 0.023
PYGB (UniProt P11216) | inactive: -0.002 | inactive: 0.021 | inactive: -0.01 | inactive: 0.023 | inactive: -0.008 | inactive: -0.03 | inactive: 0.008 | inactive: 0.031 | inactive: -0.016 | inactive: -0.021
RAB3IL1 (UniProt Q8TBN0) | inactive: -0.026 | inactive: 0.005 | inactive: -0.021 | inactive: 0.024 | inactive: -0.05 | inactive: 0.053 | inactive: -0.038 | inactive: -0.013 | inactive: -0.003 | inactive: 0.011
RAB3IP (UniProt Q96QF0) | inactive: 0.003 | inactive: 0.03 | inactive: -0.014 | inactive: 0.133 | inactive: 0.029 | inactive: 0.011 | inactive: 0.048 | inactive: 0.082 | inactive: 0.191 | inactive: -0.001
RAMAC (UniProt Q9BTL3) | inactive: -0.095 | inactive: 0.018 | inactive: 0.009 | inactive: -0.044 | inactive: -0.033 | inactive: -0.009 | inactive: 0.075 | inactive: 0.035 | inactive: -0.019 | inactive: 0.021
RAP1GAP isoform 4 (UniProt P47736) | inactive: 0.087 | inactive: -0.028 | inactive: -0.011 | inactive: -0.018 | inactive: -0.019 | inactive: -0.012 | inactive: -0.005 | inactive: 0.02 | inactive: 0.056 | inactive: 0.041
RABL3 (UniProt Q5HYI8) | active: 0.706 | inactive: -0.019 | inactive: -0.025 | inactive: 0.011 | inactive: 0.008 | active: 0.96 | inactive: -0.041 | inactive: 0.015 | inactive: 0.017 | inactive: 0.48
PYCR1 (UniProt J3QKT4) | inactive: 0.281 | inactive: -0.048 | inactive: 0.05 | inactive: 0.04 | inactive: -0.094 | inactive: 0.074 | inactive: -0.558 | inactive: -0.15 | inactive: -0.029 | inactive: 0.016
RALGAPA1 isoform 6 (UniProt Q6GYQ0) | inactive: 0.056 | inactive: -0.093 | inactive: 0.098 | inactive: 0.065 | inactive: -0.105 | inactive: -0.064 | inactive: -0.015 | inactive: -0.042 | inactive: 0.031 | inactive: 0.004
RAB13 (UniProt P51153) | inactive: -0.064 | inactive: -0.01 | inactive: -0.04 | inactive: -0.008 | inactive: -0.017 | inactive: -0.051 | inactive: 0.048 | inactive: -0.01 | inactive: -0.137 | inactive: -0.079
RAB2A (UniProt P61019) | inactive: -0.023 | inactive: -0.045 | inactive: -0.008 | inactive: 0.013 | inactive: 0.01 | inactive: -0.03 | inactive: 0.045 | inactive: 0.033 | inactive: -0.097 | inactive: 0.002
RAPGEF2, A0A2R8YGD3 | inactive: -0.009 | inactive: 0.16 | inactive: 0.038 | inactive: 0.042 | inactive: -0.083 | inactive: -0.047 | inactive: 0.053 | inactive: 0.007 | inactive: -0.085 | inactive: 0.007
RAP2C (UniProt Q9Y3L5) | inactive: -0.056 | inactive: -0.087 | inactive: -0.07 | inactive: 0.008 | inactive: -0.008 | inactive: -0.024 | inactive: -0.07 | inactive: 0.005 | inactive: 0.019 | inactive: -0.021
RAB32 (UniProt Q13637) | inactive: -0.023 | inactive: -0.047 | inactive: -0.003 | inactive: 0.008 | inactive: -0.041 | inactive: 0.002 | inactive: 0.015 | inactive: 0.018 | inactive: 0.088 | inactive: 0.019
RAP1A (UniProt P62834) | inactive: 0.006 | inactive: -0.056 | inactive: 0.016 | inactive: -0.114 | inactive: -0.011 | inactive: 0.006 | inactive: 0.001 | inactive: 0.01 | inactive: 0.007 | inactive: 0.026
RALGPS2 (UniProt Q86X27) | inactive: 0.107 | inactive: -0.041 | inactive: 0.022 | inactive: -0.083 | inactive: -0.026 | inactive: -0.055 | inactive: -0.04 | inactive: -0.031 | inactive: 0.06 | inactive: 0.003
RABGGTB (UniProt P53611) | inactive: 0.01 | inactive: 0.026 | inactive: -0.015 | inactive: 0.021 | inactive: 0.04 | inactive: -0.023 | inactive: -0.093 | inactive: -0.029 | inactive: 0.003 | inactive: 0.03
RAD9A (UniProt Q99638) | inactive: -0.004 | inactive: -0.065 | inactive: -0.018 | inactive: 0.026 | inactive: 0.011 | inactive: 0.017 | inactive: -0.025 | inactive: 0.034 | inactive: 0.035 | inactive: -0.012

Single records, from the list above. Values in the order: log2 fold change (erlotinib) | log2 fold change [1] | log2 fold change [2] | log2 fold change [3] | log2 fold change [4] | log2 fold change [5] | log2 fold change [6] | log2 fold change [7] | log2 fold change [8] | log2 fold change (IRAK-1-4 Inhibitor I)
RALGAPA1 isoform 6 (UniProt Q6GYQ0) is entered as inactive: 0.056 | inactive: -0.093 | inactive: 0.098 | inactive: 0.065 | inactive: -0.105 | inactive: -0.064 | inactive: -0.015 | inactive: -0.042 | inactive: 0.031 | inactive: 0.004
PYCR3 (UniProt Q53H96) is entered as inactive: 0 | inactive: -0.003 | inactive: -0.022 | inactive: -0.069 | inactive: 0.058 | inactive: -0.003 | inactive: 0 | inactive: 0.037 | inactive: -0.009 | inactive: -0.016
